We go through two molecules from paper PMC10273338.

Sequences of proteins named here, by UniProt entry; tags and fusion partners are left off.
UniProt O95817: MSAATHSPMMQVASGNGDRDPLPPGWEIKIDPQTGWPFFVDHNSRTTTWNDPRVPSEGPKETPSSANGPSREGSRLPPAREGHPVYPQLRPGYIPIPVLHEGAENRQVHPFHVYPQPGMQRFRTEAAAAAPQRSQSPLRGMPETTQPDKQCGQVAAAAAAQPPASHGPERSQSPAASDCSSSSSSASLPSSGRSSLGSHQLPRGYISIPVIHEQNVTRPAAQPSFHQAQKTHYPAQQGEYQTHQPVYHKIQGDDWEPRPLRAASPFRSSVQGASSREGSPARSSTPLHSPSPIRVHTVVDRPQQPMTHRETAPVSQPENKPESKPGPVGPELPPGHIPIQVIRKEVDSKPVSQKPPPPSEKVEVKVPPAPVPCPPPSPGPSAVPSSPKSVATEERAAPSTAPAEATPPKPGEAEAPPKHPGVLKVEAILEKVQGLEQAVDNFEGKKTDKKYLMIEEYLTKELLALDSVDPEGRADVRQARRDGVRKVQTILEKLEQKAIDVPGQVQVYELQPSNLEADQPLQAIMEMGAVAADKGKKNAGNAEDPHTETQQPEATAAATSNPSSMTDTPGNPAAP

The target of one experiment is T1, HspB8, Q9UJY1.
T1 chain: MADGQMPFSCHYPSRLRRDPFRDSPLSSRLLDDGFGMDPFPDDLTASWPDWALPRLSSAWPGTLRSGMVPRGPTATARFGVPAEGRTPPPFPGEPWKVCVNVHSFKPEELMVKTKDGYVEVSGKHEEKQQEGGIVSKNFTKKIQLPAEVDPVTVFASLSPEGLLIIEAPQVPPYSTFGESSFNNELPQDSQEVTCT
As to the kind of experiment: solubility assay (centrifugation, SDS-PAGE) + AFM + thioflavin T fluorescence; protein alone, 20 uM (ThT: different concentrations) in PBS at 37°C with protease inhibitors, 0-72 h; self-assembly of HspB8 concentration-dependent with a lower limit of about 5 uM; both purified. The following applies: remark: other sources report otherwise.

The target of experiment [1] is BAG3 (Bcl-2 associated athanogene protein 3) (human) (UniProt O95817). As to the kind of experiment: SEC; purified proteins mixed at BAG3:HspB8 1:2, 30 min at 37°C, then SEC; peaks probed by western blot with anti-BAG3 and anti-HspB8 and by FTIR; both purified. On the technique in general: Size exclusion chromatography separates by hydrodynamic size, large species first.

These are yes or no findings as the source states them, for the method shown. Some binding calls cover weakened binding; strength is not graded here.

B1: HspB8, Q9UJY1 1-196 (natural protein)
chain: MADGQMPFSCHYPSRLRRDPFRDSPLSSRLLDDGFGMDPFPDDLTASWPDWALPRLSSAWPGTLRSGMVPRGPTATARFGVPAEGRTPPPFPGEPWKVCVNVHSFKPEELMVKTKDGYVEVSGKHEEKQQEGGIVSKNFTKKIQLPAEVDPVTVFASLSPEGLLIIEAPQVPPYSTFGESSFNNELPQDSQEVTCT
Regarding B1, the binding entry in the experiment with HspB8, Q9UJY1 was “binds”.

B2: HspB8 (protein, UniProt Q9UJY1 1-196)
chain: MADGQMPFSCHYPSRLRRDPFRDSPLSSRLLDDGFGMDPFPDDLTASWPDWALPRLSSAWPGTLRSGMVPRGPTATARFGVPAEGRTPPPFPGEPWKVCVNVHSFKPEELMVKTKDGYVEVSGKHEEKQQEGGIVSKNFTKKIQLPAEVDPVTVFASLSPEGLLIIEAPQVPPYSTFGESSFNNELPQDSQEVTCT
Regarding B2, the binding entry in experiment [1] is recorded as “binds”.
